The values that follow come from paper PMC10130750, “The motor domain of the kinesin Kip2 promotes microtubule polymerization at microtubule tips” (The Journal of Cell Biology, 2023).

Test [1] has as its target tubulin (free αβ-tubulin heterodimer) (not stated (bovine brain tubulin used for pelleting, pig brain tubulin for TIRF)). The test can be described thus: SEC-MALS; 25°C; 20 mM Hepes pH 7.4, 200 mM NaCl, 1 mM DTT; 4–8 mg/ml applied; MBP-Kip2(71-560)-mCherry or its P1^− mutant alone and mixed with tubulin; both purified.
In test [2] the target is Taxol-stabilized microtubules (bovine brain tubulin) (bovine). The test can be described thus: co-sedimentation; microtubule-pelleting assay; Taxol-stabilized microtubules of bovine brain tubulin in BRB80, taxol–glycerol cushion, 174,500 g, 30 min, 25°C; Coomassie-stained SDS-PAGE of supernatant and pellet; both purified.
Test [3] addresses tubulin (free αβ-tubulin heterodimer) (not stated (bovine brain tubulin used for pelleting, pig brain tubulin for TIRF)). Briefly: SEC-MALS; 25°C; Kip2-NMD, tubulin and their mixture; 4–8 mg/ml applied; buffer of the mixture not told (Tris buffer named for Kip2-NMD, Hepes buffer for tubulin); both purified.

These are yes or no findings as the source states them, for the method shown. For part of these data: A result given as binding can be weak or reduced; the word gives no strength. For part of these data: Sequences can lack the tags named with a protein.

B1: MBP-Kip2(71-560)-P1^−-mCherry (domain or fragment, S. cerevisiae, UniProt P28743 71-560, looked up)
chain: KSDPFLHPGRIRIRRSDSINNNSRKNDTYTGSITVTIRPKPRSVGTSRDHVGLKSPRYSQPRSNSHHGSNTFVRDPWFITNDKTIVHEEIGEFKFDHVFASHCTNLEVYERTSKPMIDKLLMGFNATIFAYGMTGSGKTFTMSGNEQELGLIPLSVSYLFTNIMEQSMNGDKKFDVIISYLEIYNERIYDLLESGLEESGSRISTPSRLYMSKSNSNGLGVELAIADDSQYGVKVIGLTERRCESSEELLRWIAVGDKSRKIGETDYNARSSRSHAIVLIRLTSTNVKNGTSRSSTLSLCDLAGSERATGQQERRKEGSFINKSLLALGTVISKLSADKMNSVGSNIPSPSASGSSSSSGNATNNGTSPSNHIPYRDSKLTRLLQPALSGDSIVTTICTVDTRNDAAAETMNTLRFASRAKNVALHVSKKSIISNGNNDGDKDRTIELLRRQLEEQRRMISELKNRSNIGEPLTKSSNESTYKDIKATGN
notes: Kip2 motor domain with a first helix of the coiled coil, S. cerevisiae, residues 71–560, patch 1 (Lys294, Arg296) substituted with alanines; Mixed monomers and dimers by SEC-MALS (192 kD); also called MBP-Kip2-MD-P1^−-mCherry; MBP-Kip2-MD-P1; not shown: MBP, N-terminal, kept; mCherry, C-terminal, kept
As to B1, the binding result in test [1] was “binds”.

B2: Kip2 non-motor domain (Kip2-NMD, residues 504–706) (domain or fragment, S. cerevisiae, UniProt P28743 504-706, looked up)
chain: SNGNNDGDKDRTIELLRRQLEEQRRMISELKNRSNIGEPLTKSSNESTYKDIKATGNDGDPNLALMRAENRVLKYKLENCEKLLDKDVVDLQDSEIMEIVEMLPFEVGTLLETKFQGLESQIRQYRKYTQKLEDKIMALEKSGHTAMSLTGCDGTEVIELQKMLERKDKMIEALQSAKRLRDRALKPLINTQQSPHPVVDNDK
notes: Kip2 non-motor domain (coiled coil and C-terminal tail), S. cerevisiae, residues 504–706; Dimer by SEC-MALS (45 kD); PreScission site between His tag and protein; also called NMD-Kip2; source: E. coli BL21 (DE3), purified (IMAC, SEC); not shown: His6, N-terminal, cleaved
B2: the binding entry in test [2] is reported as “no binding”; in test [3], “no binding (tested: 4–8 mg/ml applied)”.
